# Percent effect of library compounds

Source: ChEMBL document CHEMBL3988442, “University of Dundee, Small-Polar-MMV Screening Library” (2021).

Mtb cholesterol medium: 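Phenotypic screen: M. tuberculosis growth, cholesterol and DPPC medium, 4 days; the read-out is not stated. Compounds at 50 µM. Higher reads as more growth inhibition (inferred: compounds with an IC50 in retests scored well above the rest). Of about 69,000 compounds tested this way, about 370 (0.54%) reached 50% or more in at least one test.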
Mtb glucose medium: 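Growth of Mycobacterium tuberculosis over 3 days (7H9 medium with glucose and tyloxapol); the read-out is not stated. Tested at 50 µM. Higher reads as more growth inhibition (inferred: compounds with an IC50 in retests scored well above the rest). Size under these conditions: about 69,000 compounds, about 760 of them at 50% or above in at least one test.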

Results are given as percent effect. How 0% and 100% were set is not recorded. Most values in the screen are low, and negative values occur. The compounds are a random part of those screened. Two or more numbers in one place are separate tests of the same structure; such repeats can differ widely.

SMILES,Mtb cholesterol medium,Mtb glucose medium
NC(=O)c1cc(C2CCCN(CCOCC(F)(F)F)C2)n[nH]1 (stereo not drawn),0.1814,-21.2
CCn1nc(C)c(CCNC(=O)c2cccc(NCC(=O)O)c2)c1C,-5.341,11.22
O=C(O)C(F)(F)F.O=C(O)C(F)(F)F.c1cnc(N2CC3(CCN(Cc4ccncc4)C3)C2)nc1,-15.54,-13.74
c1ccc(Cc2nnc(CN3CCOC(Cn4cccn4)C3)o2)cc1 (stereo not drawn),-30.87,-15.01
Cc1cnn(CC2CCCN2CC(=O)NCc2ccccn2)c1 (stereo not drawn),-8.272,28.49
COc1ccc(C(O)CN2CC(n3cc(C)cn3)C2)cc1 (stereo not drawn),7.777,12.27
CNC(=O)C1(N2CCC[C@H]2C(=O)NC2CCOCC2)CCOCC1.Cl,14.62,0.3086 and -0.7418
COC(=O)C1CCN(c2cc(C)nc(-c3ccncc3)n2)CC1,-15.55,-0.6833
O=C(O)C(F)(F)F.[H][C@@]12CCN(c3ncc(F)cn3)[C@]1([H])CC[C@H](C(=O)NC1CC1)O2,-1.878,-8.509
CCSc1ccc(C(C)NC(=O)CCS(C)(=O)=O)cc1 (stereo not drawn),-4.546,5.385
COc1ccccc1CC(=O)N1CCC(NCc2ccncc2)CC1,-9.292,-12.28
COc1cccc(CNCCc2cc(F)cc3c2OCOC3)c1,2.938,10.51 and 5.761
Cc1nccc(CNC(=O)NCC(C)Oc2ccccc2F)n1 (stereo not drawn),-4.99,4.805
Cc1cc(C)nc(C2CCN(C3CCOCC3)C2)n1 (stereo not drawn),2.026,17.18
CC(C)C1=NOC(c2nc(Cc3ccccc3)no2)C1 (stereo not drawn),38.34,55.29
Cc1nc(C)n(CCNS(=O)(=O)NCc2ccccc2)n1,-14.87,5.16
CCOCC(=O)N1CCCn2c(CN3CCCCC3)nnc2C1,7.259,-1.194
COCC(O)CN(C)C(=O)NC1CCN(S(C)(=O)=O)CC1 (stereo not drawn),-4.727 and -4.47,11.08
Cc1ccc(OC2(C(=O)O)CCN(C(=O)c3cccs3)CC2)cn1,-17.29,-19.31
COc1cccc(N2CC3(CCN(c4ccc(C)nn4)C3)CC2=O)c1 (stereo not drawn),-6.342 and 13.94,1.623 and 17.73
CS(=O)(=O)N1CCN(c2cc(N3CCCC3CO)ncn2)CC1 (stereo not drawn),15.03,10.09
CC(C)Cc1nc(OCC#N)c(C#N)c2c1CCC2,-9.806,0.65
CCOCc1ccc(NC(=O)NC2CCCn3nc(CC)nc32)cc1 (stereo not drawn),-1.109,-17.4
COc1cc(C)ccc1C(=O)N1C[C@@H](CN(C)CCO)[C@@H](CO)C1,-27.85 and -15.32,-28.95
Cc1nc(CN2CCOCC3(CCN(c4ncccn4)C3)C2)cs1.O=C(O)C(F)(F)F.O=C(O)C(F)(F)F (stereo not drawn),-9.189 and 3.157,6.795
O=C(O)C(F)(F)F.[H][C@@]12COC[C@]1(COC)CN(Cc1ccc3c(c1)OCO3)C2,-1.565,8.998
Cc1cc(F)cc2c(N3CCS(=O)(=O)CC3)c(C#N)cnc12,-31.29,-44.07
C1CCC(NC2CCCN(Cc3noc(C4CC4)n3)C2)C1 (stereo not drawn),12.95,3.983 and 5.813
CN(C)Cc1nn(C)c2c1CCN(C(=O)CC1CC1)C2.O=C(O)C(F)(F)F,-19.19,-41.01 and -10.71
COCCN(Cc1cnn(C)c1)C(=O)C1CCN(C2CCCCC2)CC1,-0.045,-0.6659 and -9.996
COc1ccc(-c2ccc(C3CNCCO3)nc2)cc1.Cl (stereo not drawn),-9.96,-1.453
[H][C@@]12CCN(Cc3nccs3)C[C@]1([H])[C@H](c1nc(C)no1)CCO2,-26.5,7.365
Cl.Cl.[H][C@@]12OCCC[C@]1([H])NC[C@H]2NC(=O)c1cccnc1,15.37,-2.597
Cc1cc(F)ccc1OC1(C(=O)O)CCN(Cc2cccnc2N)CC1,2.906,-14.16
CCc1noc(CC)c1CC(=O)N1CCCC(N2CCCCC2)C1 (stereo not drawn),14.16,25.51
CCCc1nc(CN(C)CC2CCN(CCO)CC2)no1,8.603,-3.174 and 29.12
CC(C)N(CC(=O)Nc1ccc(Br)cc1Cl)Cc1cccnc1,-25.12,0.6016 and 9.52
Cc1ccc2nc(C)c(C)c(C(=O)NCCCn3cnnc3)c2c1,6.229,6.522
CC(C(=O)Nc1ncccn1)N1CCc2[nH]nc(C(F)(F)F)c2C1 (stereo not drawn),-0.3033,-1.471 and -36.48
COCC(=O)N1CCC2(CC1)CC(N1CCN(C)CC1)CO2 (stereo not drawn),-7.937,-8.319 and -1.798
COc1cccc(COCC(=O)N2CCCC(c3ccn[nH]3)C2)c1 (stereo not drawn),5.684,-23.7
O=C(NCCOc1cccc(Cl)c1)C1CC(=O)N(CC2CC2)C1 (stereo not drawn),0.9542,-8.244
CC(NC(N)=O)C(=O)N(C)Cc1cccc(C(F)(F)F)c1 (stereo not drawn),2.32,-39.28 and -1.883
CCc1csc(C2CCCN(C(=O)c3ccccn3)C2)n1 (stereo not drawn),-7.466,3.27
O=C(O)C(F)(F)F.[H][C@]12CCN(c3ncccn3)CC[C@@]1([H])S(=O)(=O)N(CC(=O)N(C)C)C2,7.696,-7.633 and 2.571
COc1ccc(C2CCN(Cc3cscn3)CC2)cc1,4.299,1.882
CCc1cc(NCC(O)CN2CCCC2)ncn1 (stereo not drawn),-46.35,13.13
COCCN(CCC#N)Cn1cc(Cl)cn1,3.436,14.63
CN(CCc1ccccc1)Cc1cc(C(=O)N2CCN(C)C(=O)C2)no1,-7.186,11.03
Cc1nn(CC(=O)N2CCN(c3ccccc3F)CC2)c(C)c1Cl,-9.175,-24.97
CC(C)c1nc(CC(=O)Nc2nc(CN3CCCCCC3)cs2)cs1,45.96,72.81
O=C(N[C@@H]1CCN(Cc2ccc(F)cc2F)C[C@H]1O)c1cccnc1,-8.557,-23.41
CCc1cc(O)n2nc(C3CCN(C(=O)c4cccnc4)CC3)cc2n1,-9.451 and -34.41,-40.63
CCC(NC(=O)CNC(=O)OC)c1cc(F)ccc1F (stereo not drawn),-3.051,-0.8355
CN(Cc1ccc2nonc2c1)C(=O)CCc1cc2n(n1)CCCNC2,-9.126,11.55
CC(C(=O)NCc1ccc(F)cc1)N(C)CCN1CCOCC1 (stereo not drawn),-11.57,-13 and -26.45
Cc1cccnc1NCCNC(=O)c1cnc(-c2cccs2)nc1O,19.78,47.45
O=C(O)c1nnn(-c2ccc(Cl)c(C(F)(F)F)c2)c1-c1ccncc1,-14.42,-3.019
COCCC1(C(=O)NCCc2nncn2C2CC2)CCC1,-4.759,-8.188 and -3.099
[H][C@@]12CN(C(=O)C3CC=CC3)C[C@@]1([H])N(Cc1cccnc1)C(=O)CO2,-8.384,-29.05
CC(=O)CCC(=O)N1CCC2(CC1)N=C(CCC(C)C)NC2=O,1.659 and -5.934,-12.62
COc1cc(C)nc(N2CCN(C(=O)c3ccn(C)c(=O)c3)CC2)n1,-0.05078,3.21 and 0.5195
CC(NCc1cnc(N2CCOCC2)nc1)c1ccc(Cl)s1.Cl (stereo not drawn),6.011,-5.869
Cc1nn(C)c(C)c1C1CCCN1C(=O)c1ccc(Cl)o1 (stereo not drawn),5.259 and -0.07316,11.11
CC(C)(C)c1nc(CC(=O)N2CCCC(n3cncn3)C2)cs1 (stereo not drawn),-3.53,5.799
CCc1cc(CNC(=O)c2cc(NC(=O)C(C)C)ccc2Cl)[nH]n1,-0.08969,3.125 and -17.45
Fc1ccc(CC2CCN(Cc3nccs3)CC2)cc1,15.5,8.647
CCS(=O)(=O)CC(=O)Nc1c(C)cnn1Cc1cc(F)ccc1F,5.288,0.08867
CC(C)c1nc(O)c2nnn(C[C@@H]3CCCN(Cc4cccs4)C3)c2n1,5.262,-4.781
CCc1nc(CCNc2ncccn2)sc1C,-21.02,-14.03 and 8.799
CC1CCC2(CC1)NC(=O)c1cc(Br)ccc1-n1nnnc12 (stereo not drawn),-15.48,16.8
CN(C)C(=O)Cn1cc(C(=O)N2CCCc3cccc(F)c32)nn1,-2.599,-3.794
Cc1nn(C)c(C)c1CCC(=O)Nc1cccn(C)c1=O,-7.603,14.13
[H][C@]12CN(CC(C)(C)C)CCN1C(=O)N(C1CCCCC1)C2,-26.98,-1.398 and 41.31
CCC(C(=O)NCc1noc(Cc2cccs2)n1)n1cccn1 (stereo not drawn),-24.84,1.819 and -36.17
CCOCc1cnc2n1CCN(C(=O)c1ccccc1)C2C (stereo not drawn),-10.97,29.16
Cc1occc1-c1nc(NC2CCCC2)ncc1-c1ccccn1,26.73,44.25
CN(Cc1ccc2c(c1)OCO2)C(=O)NCCc1cnn(C)c1,-1.572,-1.275
O=C(O)C(F)(F)F.[H][C@]12CCN(c3cc(OC)ncn3)[C@@]1([H])C[C@@H](C(=O)N(C)C)O2,-6.941,-4.257
Cc1ncc(CC(=O)N2CCC3(CCC(=O)N(C4CC4)C3)CC2)c(=O)[nH]1,1.596,-6.238
Cc1nn(C)c(C)c1C1CCCN1Cc1nc(C)c2ccccc2n1 (stereo not drawn),3.363,22.99
CC(=O)c1cccc(S(=O)(=O)N2CCC(c3noc(C)n3)CC2)c1,11.56,18.94
CN(c1ccc(C(=O)NCCN2CCOCC2)c(Cl)c1)S(C)(=O)=O,-4.156,13

The last 9 entries again:

SMILES,Mtb cholesterol medium,Mtb glucose medium
CCC(C(=O)NCc1noc(Cc2cccs2)n1)n1cccn1 (stereo not drawn),-24.84,1.819 and -36.17
CCOCc1cnc2n1CCN(C(=O)c1ccccc1)C2C (stereo not drawn),-10.97,29.16
Cc1occc1-c1nc(NC2CCCC2)ncc1-c1ccccn1,26.73,44.25
CN(Cc1ccc2c(c1)OCO2)C(=O)NCCc1cnn(C)c1,-1.572,-1.275
O=C(O)C(F)(F)F.[H][C@]12CCN(c3cc(OC)ncn3)[C@@]1([H])C[C@@H](C(=O)N(C)C)O2,-6.941,-4.257
Cc1ncc(CC(=O)N2CCC3(CCC(=O)N(C4CC4)C3)CC2)c(=O)[nH]1,1.596,-6.238
Cc1nn(C)c(C)c1C1CCCN1Cc1nc(C)c2ccccc2n1 (stereo not drawn),3.363,22.99
CC(=O)c1cccc(S(=O)(=O)N2CCC(c3noc(C)n3)CC2)c1,11.56,18.94
CN(c1ccc(C(=O)NCCN2CCOCC2)c(Cl)c1)S(C)(=O)=O,-4.156,13